Here are results for three molecules from article doi:10.1101/2025.11.07.687187.

No constants are given. Whether binding was seen depends on the method and setting. In cells and extracts the contact can be indirect. Here binding means that the protein was enriched with, or labelled near, the bait; the list need not be complete.

Holding throughout (experiment): affinity purification with mass spectrometry
For test [1], the target named is T1, SPATA5 (human (endogenous in HCT116)) (UniProt Q8NB90).
T1 sequence: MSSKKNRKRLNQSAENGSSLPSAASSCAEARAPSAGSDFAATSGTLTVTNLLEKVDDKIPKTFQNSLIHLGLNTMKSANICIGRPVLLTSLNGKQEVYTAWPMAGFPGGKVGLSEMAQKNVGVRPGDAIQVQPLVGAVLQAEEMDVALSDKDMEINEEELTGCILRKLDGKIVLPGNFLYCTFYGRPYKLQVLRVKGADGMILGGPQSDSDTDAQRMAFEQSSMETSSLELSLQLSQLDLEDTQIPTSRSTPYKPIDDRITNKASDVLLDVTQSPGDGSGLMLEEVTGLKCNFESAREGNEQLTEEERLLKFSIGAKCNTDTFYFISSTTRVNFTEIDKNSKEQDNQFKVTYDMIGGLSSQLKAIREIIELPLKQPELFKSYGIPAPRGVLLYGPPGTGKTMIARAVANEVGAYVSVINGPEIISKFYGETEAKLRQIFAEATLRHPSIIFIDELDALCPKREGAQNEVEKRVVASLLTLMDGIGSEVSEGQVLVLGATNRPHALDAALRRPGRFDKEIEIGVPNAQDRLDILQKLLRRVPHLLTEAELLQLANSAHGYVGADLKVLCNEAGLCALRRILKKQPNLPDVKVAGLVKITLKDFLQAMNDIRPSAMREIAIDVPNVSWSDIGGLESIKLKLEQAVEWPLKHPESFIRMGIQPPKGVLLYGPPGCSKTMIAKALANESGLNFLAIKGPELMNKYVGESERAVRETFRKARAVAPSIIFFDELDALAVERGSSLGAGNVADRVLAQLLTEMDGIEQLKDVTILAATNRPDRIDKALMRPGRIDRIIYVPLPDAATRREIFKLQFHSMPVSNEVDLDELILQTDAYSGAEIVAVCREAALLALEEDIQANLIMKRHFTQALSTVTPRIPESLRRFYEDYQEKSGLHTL

Test [2] addresses T2, SPATA5L1 (human (endogenous in HCT116)) (UniProt Q9BVQ7).
T2 sequence: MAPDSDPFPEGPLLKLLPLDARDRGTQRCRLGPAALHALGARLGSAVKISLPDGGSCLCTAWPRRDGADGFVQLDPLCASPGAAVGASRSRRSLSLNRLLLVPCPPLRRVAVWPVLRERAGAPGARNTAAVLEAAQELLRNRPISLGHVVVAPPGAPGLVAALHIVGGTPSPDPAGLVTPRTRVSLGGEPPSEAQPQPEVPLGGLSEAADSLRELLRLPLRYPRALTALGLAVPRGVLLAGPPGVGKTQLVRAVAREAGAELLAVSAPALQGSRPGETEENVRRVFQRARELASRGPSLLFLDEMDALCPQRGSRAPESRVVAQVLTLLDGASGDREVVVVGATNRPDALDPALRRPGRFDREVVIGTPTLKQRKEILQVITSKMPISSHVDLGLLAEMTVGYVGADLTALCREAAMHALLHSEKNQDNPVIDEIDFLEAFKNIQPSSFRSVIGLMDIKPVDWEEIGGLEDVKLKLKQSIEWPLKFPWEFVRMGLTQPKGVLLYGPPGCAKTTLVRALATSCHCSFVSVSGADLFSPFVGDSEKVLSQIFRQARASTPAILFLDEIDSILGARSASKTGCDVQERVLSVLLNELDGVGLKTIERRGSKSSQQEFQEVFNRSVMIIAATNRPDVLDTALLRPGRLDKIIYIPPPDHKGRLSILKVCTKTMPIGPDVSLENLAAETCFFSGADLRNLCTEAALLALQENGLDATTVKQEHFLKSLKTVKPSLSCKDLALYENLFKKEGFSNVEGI

The target of test [3] is T3, C1ORF109 (human (endogenous in HCT116)) (UniProt Q9NX04).
T3 sequence: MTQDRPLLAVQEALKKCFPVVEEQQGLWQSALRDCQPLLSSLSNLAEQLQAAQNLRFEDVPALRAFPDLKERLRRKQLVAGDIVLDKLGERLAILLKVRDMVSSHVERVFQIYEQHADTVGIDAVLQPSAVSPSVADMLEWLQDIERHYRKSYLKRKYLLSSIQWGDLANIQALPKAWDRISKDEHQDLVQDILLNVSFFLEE

Substrate in test [4]: T4, CINP (cyclin-dependent kinase 2 interacting protein) (human (endogenous in HCT116)) (UniProt Q9BW66)
T4 sequence: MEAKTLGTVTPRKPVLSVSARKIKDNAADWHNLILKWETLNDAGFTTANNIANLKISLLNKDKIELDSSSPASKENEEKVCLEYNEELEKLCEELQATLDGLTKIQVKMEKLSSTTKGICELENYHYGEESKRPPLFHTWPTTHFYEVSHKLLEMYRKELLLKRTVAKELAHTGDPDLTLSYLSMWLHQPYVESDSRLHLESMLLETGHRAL

B1: CINP (cyclin-dependent kinase 2 interacting protein) (protein, UniProt Q9BW66 1-212)
chain: T4 sequence
Turning to B1, the binding result in test [1] and in test [2] was “binds” in each case.

B2: SPATA5L1 (protein, UniProt Q9BVQ7 1-753)
chain: T2 sequence
B2: the binding entry in test [3], in test [1] and in test [4] was “binds” each time.

B3: SPATA5 (protein, UniProt Q8NB90 1-893)
chain: T1 sequence
Consider B3, for which the binding result in test [3], in test [2] and in test [4] was “binds” throughout.
